Measured values as given in PubChem BioAssay AID540256 (National Center for Advancing Translational Sciences (NCATS), 2011).
Among all 300,000 compounds or so, about 3,700 (1.2%) were called active. The shares of active, inactive and inconclusive entries below differ from those in the screen. Calls follow the shape of the full dose curve; tested in HEK293 cells. Potencies of inconclusive entries are doubtful fits and often do not repeat.

experiment: qHTS for Inhibitors of binding or entry into cells for Lassa Virus; details: Lassa virus pseudotype entry inhibition, cell reporter; series mostly up to 37.9 µM; also: nearly all actives have a fitted effect of over 50% in size
Potency is read from the fitted curve at half-maximal effect.

SMILES	Potency
O=C(COc1ccccc1[N+](=O)[O-])N(Cc1ccco1)c1ccccn1	inconclusive: 15.8 µM [activator, single point]
COC(=O)c1ccc(-c2nc3ccccc3[nH]2)cc1	active: 7.31 µM
COc1ccc(-c2cnnn2-c2ccc(NC(=O)c3ccc(S(=O)(=O)N4CCCCC4)cc3)cc2)cc1	active: 7.08 µM
CCc1ccc(OCC(=O)N/N=C(\C)c2ccc(O)cc2O)cc1	inconclusive: 17.8 µM [inhibitor, partial curve, poor fit]
OC(CC#CCN1CCCCC1)(c1ccccc1)c1ccccc1	inconclusive: 35.5 µM [inhibitor, single point]
COc1ccc(NS(=O)(=O)c2ccc(N3CCCCC3)c(NC(=O)C(C)NC(N)=O)c2)cc1 (stereo not drawn)	inactive
Cc1cc2cc(CNC(=O)Nc3ccccc3)ccc2n1C	inconclusive: 5.17 µM [activator, full curve, poor fit]
CC(C)CC(=O)Nc1c(C(=O)N2CCN(c3ccccc3)CC2)oc2ccccc12	inconclusive: 5.62 µM [inhibitor, single point]
CCCCCCN1C[C@@H](n2cc(COC(=O)c3ccccc3)nn2)[C@H](O)C[C@H]1c1ccc(OC)cc1	inconclusive: 25 µM [inhibitor, single point]
CC(=O)c1cccc(NC(=O)c2noc3c2CCCC3)c1	inconclusive: 10 µM [activator, partial curve, poor fit]
CCc1ccccc1N(C)C(=O)c1cc2c(=O)oc3ccccc3c2s1	inconclusive: 31.6 µM [activator, single point]
COc1ccccc1C(=O)Nc1ccc2c(c1)CCCN2C(=O)c1cccs1	inconclusive: 15.8 µM [inhibitor, partial curve, poor fit]
Cc1cccn2cc(-c3ccc(F)cc3)cc12	inconclusive: 20 µM [activator, single point]
CCCn1c(SCC(=O)N2N=C3/C(=C/c4ccc(OC)cc4)CCCC3C2c2ccc(OC)cc2)n[nH]c1=O (stereo not drawn)	inconclusive: 29.1 µM [inhibitor, single point]
O=C(Cn1cnc2nc3n(c2c1=O)CCC3)NCc1ccccc1	inconclusive: 20.6 µM [activator, single point]
CC(=O)Nc1ccc(S(=O)(=O)N2CCNC(=O)C2)cc1	inconclusive: 3.16 µM [inhibitor, single point]
Cc1ccc(C)c(CN2C(=O)c3ccccc3S(=O)(=O)c3ccc(C(=O)N4CCCCC4)cc32)c1	inconclusive: 35.5 µM [inhibitor, single point]
CC(C)Cn1c(N)c(C(=O)COC(=O)CCc2nc3ccccc3s2)c(=O)n(C)c1=O	inconclusive: 0.355 µM [inhibitor, full curve, poor fit]
Cc1ccc(SCC(=O)N2CCCC2)cc1	inactive
Cc1ccc2nc(C)cc(Nc3ccc([N+](=O)[O-])cc3)c2c1	inconclusive: 5.01 µM [inhibitor, full curve]
COc1ccc(C(=O)OCCc2ccc(O)cc2)cc1	inconclusive: 8.2 µM [inhibitor, partial curve]
COc1cc(Nc2nnc(C)s2)c(Cl)cc1Cl	inconclusive: 1.16 µM [activator, single point]
S=C1CCC(c2ccc(Cl)cc2)=NN1c1ccccc1	inconclusive: 35.5 µM [inhibitor, single point]

SMILES	Potency
O=C(c1ccc(Cl)cc1)C1CCCN(Cc2cccn2-c2ccccn2)C1 (stereo not drawn)	inconclusive: 12.6 µM [inhibitor, partial curve, poor fit]
COc1ccc(C(=O)C2CCCN(C(=O)c3cccnc3SC)C2)c(C)c1 (stereo not drawn)	inactive
Cc1ccc2nc(-c3ccccc3)cn2c1	active: 0.316 µM
CC(=O)c1ccc(-n2ccnc2)cc1	inconclusive: 35.5 µM [inhibitor, single point]
Cc1[nH]c2ccccc2c1C(c1ccccn1)c1c(C)[nH]c2ccccc12	inactive
Cc1ccc(C)c(SCC(=O)NCC(c2ccco2)N2CCCCC2)c1 (stereo not drawn)	inconclusive: 35.5 µM [inhibitor, single point]
COc1ccc(N(C(=O)c2ccco2)C(C(=O)NC2CCCC2)c2ccc(N3CCOCC3)cc2)c(OC)c1 (stereo not drawn)	inactive
CNc1cnn(-c2ccc(C)cc2)c(=O)c1Sc1ccc(C)cc1	inconclusive: 14.1 µM [inhibitor, single point]
Cc1cccc2c1N(CCOc1ccc(C(C)(C)C)cc1)C(=O)C2=O	inconclusive: 35.5 µM [inhibitor, single point]
C=CCN=c1scc(-c2ccc3c(c2)NC(=O)CO3)n1/N=C(\C)c1ccccn1	inconclusive: 10 µM [inhibitor, partial curve]
COC(=O)c1ccccc1NC(=O)N1CCc2c(sc3c2CCCC3)C1c1ccc(F)cc1 (stereo not drawn)	inconclusive: 7.08 µM [activator, full curve, poor fit]
O=C(Cn1c(=O)n(CC2CCC(C(=O)NCCc3ccccc3)CC2)c(=O)c2ccccc21)Nc1cccc(F)c1 (stereo not drawn)	inconclusive: 0.501 µM [inhibitor, full curve, poor fit]
CCOC(=O)Cn1cc(/C=C(\C#N)C(=O)N2CCOCC2)c2ccccc21	inactive
O=C(Nc1ccc(C(=O)N2CCCCC2)cc1)Nc1cccc(Cl)c1	inactive
CC(C)[C@H](NC(=O)OCc1ccccc1)C(=O)OCc1cc(=O)oc2cc(O)ccc12	inconclusive: 12.6 µM [inhibitor, partial curve, poor fit]
O=C(CCc1ccccc1)Nc1ccc2ccccc2n1	inconclusive: 35.5 µM [inhibitor, single point]
CCCN(Cc1cc2cc(OC)ccc2[nH]c1=O)C(=O)c1ccncc1	inconclusive: 31.6 µM [inhibitor, partial curve, poor fit]
Cc1ccc(-c2ccc(NC(=O)C3C4C=CC(C4)C3C(=O)O)cc2)o1 (stereo not drawn)	inconclusive: 3.26 µM [activator, single point]
O=C(Nc1ccccc1Oc1ccccc1)c1cnccn1	inconclusive: 18.3 µM [inhibitor, partial curve, poor fit]
O=C(NCc1cccs1)c1ccc2ccccc2n1	active: 6.51 µM
CSc1cccc(CN2CCC(Oc3ccc(C(=O)N4CCCCC4)cc3)CC2)c1	inconclusive: 0.708 µM [inhibitor, full curve, poor fit]
Cc1cc(C)nc(-n2ncc3c2CC(c2ccccc2)CC3=O)n1 (stereo not drawn)	inconclusive: 4.47 µM [inhibitor, full curve, poor fit]
CC(=O)N(CCCN(C)C)Cc1ccccn1	inactive

SMILES	Potency
N#CCSc1ccsc1C(=O)Nc1ccc(F)cc1	inactive
CCCC(=O)Nc1ccc(-c2nc3cc(C)ccc3o2)cc1	inconclusive: 0.58 µM [activator, single point]
CCOC(=O)N/N=C/c1cn(Cc2ccccc2Cl)c2ccccc12	inconclusive: 16.4 µM [inhibitor, single point]
COc1cc(-c2ccc(Nc3ccccc3C(=O)O)c(OC)c2)ccc1Nc1ccccc1C(=O)O	inconclusive: 3.98 µM [inhibitor, full curve, poor fit]
CC(O)C(NS(=O)(=O)c1ccc(Cl)cc1)C(=O)OCC(=O)c1c[nH]c2ccccc12 (stereo not drawn)	inconclusive: 10 µM [inhibitor, partial curve, poor fit]
CCC(=O)N(CCC(c1ccco1)C(C)C)Cc1ccccc1 (stereo not drawn)	inconclusive: 35.5 µM [inhibitor, single point]
CNc1ccc(Br)cc(C(=O)/C=C/c2ccc(Cl)cc2Cl)c1=O	inconclusive: 35.5 µM [inhibitor, partial curve, poor fit]
COc1ccc(-c2nn(Cc3ccccc3)cc2C(=O)N2CCN(c3ccccn3)CC2)cc1OC	inconclusive: 2.51 µM [inhibitor, full curve]
CC1CCN(c2ccc(/C=N\Nc3nncn3N)cc2[N+](=O)[O-])CC1	inconclusive: 29.1 µM [inhibitor, single point]
CCc1nnc(NC(=O)CSc2ccc(-c3ccc(-n4cccn4)cc3)nn2)s1	inconclusive: 0.631 µM [inhibitor, full curve, poor fit]
CC(C)CN1CN(Cc2ccccc2)CNC1=S	inconclusive: 0.141 µM [inhibitor, full curve, poor fit]
CCCc1cc(NCCCn2ccnc2)n2nc(C)c(-c3ccccc3)c2n1	inactive
COc1cc2cc(CN(Cc3cccs3)C(=S)Nc3ccc(C)cc3)c(=O)[nH]c2cc1OC	active: 4.61 µM
COc1cccc(NC(=S)Nc2cccc3ccccc23)c1	inactive
O=C(COc1ccc(NC(=O)c2cccs2)cc1)c1ccc(F)cc1	inactive
Cc1cc2oc(C(=O)Nc3ccc(S(=O)(=O)Nc4ncccn4)cc3)c(C)c2cc1Cl	inactive
CSc1ccccc1Nc1ncnc(N)n1	inactive
CC(C)NC(=O)/C(C#N)=C/c1ccc(N(C)C)o1	inconclusive: 35.5 µM [activator, single point]
NC(=O)c1ccc(C(F)(F)F)n(Cc2ccc(F)c(F)c2)c1=O	inactive
COC(=O)c1ccc(COn2nnc3ccccc32)cc1	inconclusive: 14.1 µM [inhibitor, single point]
COc1ccc(CNC(=O)c2ccc(NC(=O)N3CCCCc4ccccc43)cc2)cc1	inactive
COc1ccc(OC)c(NC(=O)c2cccc(NC(=O)c3ccccc3)c2)c1	inconclusive: 35.5 µM [inhibitor, single point]

Random excerpt: 2 compounds from above
SMILES	Potency
COc1ccc(N(C(=O)c2ccco2)C(C(=O)NC2CCCC2)c2ccc(N3CCOCC3)cc2)c(OC)c1 (stereo not drawn)	inactive
CC(C)Cn1c(N)c(C(=O)COC(=O)CCc2nc3ccccc3s2)c(=O)n(C)c1=O	inconclusive: 0.355 µM [inhibitor, full curve, poor fit]
